# PubChem BioAssay AID743121, NCATS – 2013
# Aim: 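Knock-downs that sensitise breast cancer cells to camptothecin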 (primary screen)
# Cells: MDA-MB-231 cells, a human breast cancer line
# Reagents: single siRNA against human genes, 20 nM siRNA (0.8 pmol per well)
# Timing: 120 h (drug added 48 h after transfection, read 72 h later)
# Treatment: camptothecin 20 nM (about EC30) for 72 h; vehicle 0.1% DMSO in parallel plates
# Detection: 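CellTiter-Glo ATP signal, scaled to control siRNA as percent viability; sensitisation given as log2 of untreated divided by camptothecin-treated viability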
# Direction: log2 vehicle/camptothecin viability: higher = stronger sensitisation to camptothecin; viability with camptothecin and viability without drug: higher = more viable cells
# Active means: 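Each gene scored by redundant siRNA activity (RSA) over its individual siRNA ratios; a gene is called active at p < 0.001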
# This is an unselected part of about 26,000 reagents. Of all reagents, 167 (0.63%) got an active call. 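Calls are per gene from RSA p-values that are not deposited; an individual active-marked siRNA can sensitise only weakly.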 The numbers tell different reagents against one gene apart. No sequences are given here.
Target gene,siRNA no.,log2 vehicle/camptothecin viability,viability with camptothecin (% of control),viability without drug (% of control),Call
ZNF443,1,0.0561,65.8,68.4,inactive
ZNF443,2,-0.108,106,98.5,inactive
ZNF443,3,-0.409,51.5,38.8,inactive
ZNF443,4,-0.143,86.8,78.7,inactive
TFEB,1,-0.227,84.2,72,inactive
TFEB,2,-0.723,2.71,1.64,inactive
TFEB,3,-0.28,63.5,52.3,inactive
TFEB,4,-0.169,66.6,59.2,inactive
TAS2R4,1,-0.3,64.1,52.1,inactive
TAS2R4,2,-0.499,75,53,inactive
TAS2R4,3,0.0343,80.1,82,inactive
TAS2R4,4,-0.348,42.7,33.6,inactive
OR10R2,1,-0.172,103,91.5,inactive
OR10R2,2,0.205,28.1,32.4,inactive
OR10R2,3,-0.138,61.6,56,inactive
OR10R2,4,-0.352,117,91.8,inactive
F2,1,-0.0204,104,103,inactive
F2,2,-0.218,79.8,68.6,inactive
F2,3,0.2,80.7,92.7,inactive
TNFRSF11A,1,1.94,18.8,72.3,inactive
TNFRSF11A,2,-0.444,65.9,48.4,inactive
TNFRSF11A,3,-0.299,55.1,44.8,inactive
ALKBH2,1,0.0287,91.6,93.4,inactive
ALKBH2,2,-0.279,93.1,76.7,inactive
ALKBH2,3,-0.34,109,86.5,inactive
XYLB,1,-0.359,106,82.7,inactive
XYLB,2,0.712,55,90.1,inactive
XYLB,3,-0.167,113,100,inactive
XYLB,4,-0.302,82.9,67.2,inactive
SIM2,1,-0.0673,85.9,82,inactive
SIM2,2,-0.275,63.7,52.7,inactive
SIM2,3,0.105,78.6,84.6,inactive
SIM2,4,-0.331,26.7,21.3,inactive
THRA,1,-0.0771,101,95.9,inactive
THRA,2,0.0366,84.8,86.9,inactive
THRA,3,0.0808,82.8,87.6,inactive
THRA,4,0.0388,45.7,47,inactive
PDGFC,1,-0.335,77.8,61.7,inactive
PDGFC,2,-0.204,27.9,24.2,inactive
PDGFC,3,-0.0529,80.9,78,inactive
PDGFC,4,-0.181,80.3,70.9,inactive
TAOK3,1,-0.505,94.1,66.3,inactive
TAOK3,2,-0.26,84.6,70.7,inactive
TAOK3,3,-0.14,100,90.9,inactive
TAOK3,4,-0.214,42.8,36.9,inactive
SDR9C7,1,-0.377,73,56.2,inactive
SDR9C7,2,-0.469,108,78.4,inactive
SDR9C7,3,-0.295,88.3,72,inactive
SDR9C7,4,0.093,78.8,84.1,inactive
SOCS1,1,-0.0738,109,104,inactive
SOCS1,2,-0.333,82.4,65.4,inactive
SOCS1,3,-0.0727,68.6,65.2,inactive
RGS17,1,0.0818,98.2,104,inactive
RGS17,2,-0.197,102,88.8,inactive
RGS17,3,0.113,85.2,92.1,inactive
RGS17,4,-0.491,85.7,60.9,inactive
PPP1R1C,1,-0.337,68.9,54.5,inactive
PPP1R1C,2,-0.109,30.4,28.2,inactive
PPP1R1C,3,0.325,56.2,70.4,inactive
PPP1R1C,4,0.0811,70.4,74.5,inactive
ABCB9,1,0.568,56.6,83.9,inactive
ABCB9,2,-0.0139,89.6,88.7,inactive
ABCB9,3,-0.177,68.9,60.9,inactive
ABCB9,4,-0.256,89.8,75.2,inactive
FYB1,1,0.0633,77,80.4,inactive
FYB1,2,0.455,21.8,29.9,inactive
FYB1,3,-0.036,92.9,90.6,inactive
FYB1,4,-0.27,69.5,57.7,inactive

An excerpt from above, reduced to “log2 vehicle/camptothecin viability”:
SIM2 #3	0.105
SIM2 #4	-0.331
THRA #1	-0.0771
THRA #2	0.0366
THRA #3	0.0808
THRA #4	0.0388
PDGFC #1	-0.335
